From article PMC12285911

B1: NUB1 (NEDD8 ultimate buster 1), wild type, full length [human] / ^FAMFAT10 (GG–FAT10 N-terminally labeled with fluorescein amidite by sortase) [modified: 5-FAM on the N terminus (5-FAM conjugated to the N terminus of the … (parent)
chain 1: GPGSMAQKKYLQAKLTQFLREDRIQLWKPPYTDENKKVGLALKDLAKQYSDRLECCENEVEKVIEEIRCKAIERGTGNDNYRTTGIATIEVFLPPRLKKDRKNLLETRLHITGRELRSKIAETFGLQENYIKIVINKKQLQLGKTLEEQGVAHNVKAMVLELKQSEEDARKNFQLEEEEQNEAKLKEKQIQRTKRGLEILAKRAAETVVDPEMTPYLDIANQTGRSIRIPPSERKALMLAMGYHEKGRAFLKRKEYGIALPCLLDADKYFCECCRELLDTVDNYAVLQLDIVWCYFRLEQLECLDDAEKKLNLAQKCFKNCYGENHQRLVHIKGNCGKEKVLFLRLYLLQGIRNYHSGNDVEAYEYLNKARQLFKELYIDPSKVDNLLQLGFTAQEARLGLRACDGNVDHAATHITNRREELAQIRKEEKEKKRRRLENIRFLKGMGYSTHAAQQILLSNPQMWWLNDSNPETDNRQESPSQENIDRLVYMGFDALVAEAALRVFRGNVQLAAQTLAHNGGSLPPELPLSPEDSLSPPATSPSDSAGTSSASTDEDMETEAVNEILEDIPEHEEDYLDSTLEDEEIIIAEYLSYVENRKSATKKN
chain 2: GGMAPNASCLCVHVRSEEWDLMTFDANPYDSVKKIKEHVRSKTKVPVQDQVLLLGSKILKPRRSLSSYGIDKEKTIHLTLKVVKPSDEELPLFLVESGDEAKRHLLQVRRSSSVAQVKAMIETKTGIIPETQIVTCNGKRLEDGKMMADYGIRKGNLLFLACYCIGG

Variants of: B1
Assay: fluorescence polarisation
Settings: with ^FAMFAT10 (GG–FAT10 N-terminally labeled with fluorescein amidite by sortase) [modified: 5-FAM on the N terminus (5-FAM conjugated to the N terminus of the pept); FAMFAT10 100 nM; NUB1 5 μM; preincubation for 30 min; read off a plot

Variant | response
chain 1 C321A R328A | 167 mP
chain 1 D282A | 166 mP
chain 1 D218P A220P | 146 mP

Other lines, results leading:

response | Variant
148 mP | chain 1 N283A
191 mP | chain 1 R418A L422A
155 mP | chain 1 L566S I569S
187 mP | chain 1 Y576A
